The target of the experiment is Thermotoga maritima encapsulin with a 10 Histidine tag after residue 127 (EncH) (Thermotoga maritima) (UniProt Q9WZP2). In words: negative-stain transmission electron microscopy; purified cages (EncH{} and EncH{FLP}; cargo produced along with the cage in E. coli and purified with it by the His-tag of Enc and SEC) on Formvar carbon-coated copper grids, 1% uranyl acetate, 300 kV; both purified.

No constants are given. Whether binding was seen depends on the method and setting. Some entries that bind do so weakly or less than the wild type.

B1: ferritin-like protein (FLP), native cargo of Thermotoga maritima encapsulin (protein, UniProt Q9WZP3 1-114)
chain: MADQYHEPVSELTGKDRDFVRALNSLKEEIEAVAWYHQRVVTTKDETVRKILEHNRDEEMEHAAMLLEWLRRNMPGWDEALRTYLFTDKPITEIEEETSGGSENTGGDLGIRKL
As for B1, the binding entry is “binds”.
